No constants are given. Whether binding was seen depends on the method and setting. Some results given as binding are weak or reduced against the parent protein; the word gives no strength. Where a sequence is shown, tags or fusion partners need not be part of it.
Assays:
[1] = biological target: T1, recombinant canine IL-13 (canine, UniProt Q9N0W9 21-131, limits assumed); experiment: inferred from prevention of IL-13 stimulated antigen-specific IgE production by canine PBMC
T1 sequence (looked up): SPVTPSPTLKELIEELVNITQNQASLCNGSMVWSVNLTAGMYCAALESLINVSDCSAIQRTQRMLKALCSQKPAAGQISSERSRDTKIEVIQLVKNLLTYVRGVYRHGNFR

[2] = biological target: T1, recombinant canine IL-13; experiment: inferred from inhibition of IL-13 stimulated TF-1 cell proliferation

binding [1]: binds
binding [2]: binds
B1: PCaIL-13Rα2-Fc-B9563 (Fc fusion)
chain: MSMLSNAEIKVNPPQDFEIVDPGYLGYLSLQWQPPLFPDNFKECTIEYELKYRNIDSENWKTIITKNLHYKDGFDLNKGIEAKINTLLPAQCTNGSEVRSSWAETTYWTSPQGNRETKIQDMDCVYYNWQYLVCSWKPGMGVHFDTNYQLFYWYEGLDHSAECTDYIKVNGKNMGCRFPYLESSDYKDFYICVNGSSESQPIRPSYFIFQLQNIVKPMPPDYLSLTVKNSEEINLKWNMPKGPIPAKCFIYEIEFTEDGTTWVTTTVENEIQITRTSNESQKLCFLVRSKVNIYCSDDGIWSEWSDEQCWKGDIWKETGSNTKVDKPVAKECECKCNCNNCPCPGCGLLGGPSVFIFPPKPKDILVTARTPTVTCVVVDLDPENPEVQISWFVDSKQVQTANTQPREEQSNGTYRVVSVLPIGHQDWLSGKQFKCKVNNKALPSPIEEIISKTPGQAHQPNVYVLPPSRDEMSKNTVTLTCLVKDFFPPEIDVEWQSNGQQEPESKYRMTPPQLDEDGSYFLYSKLSVDKSRWQRGDTFICAVMHEALHNHYTQISLSHSPGK
